In this test the target is cathepsin L (human (endogenous in SUM149)) (UniProt P07711). The test can be described thus: co-IP; SUM149 nuclear lysate (300 mM NaCl, 0.5% NP40), sonicated, diluted twofold, DNase I digested; 5 µg specific antibody (KDM4C, GRHL2 or CTSL) or isotype IgG overnight at 4 °C, protein A/G magnetic beads, immunoblot with 10% input.

By UniProt entry, the sequences of proteins in these tests, tags left out. Where a name states a change or a piece, a line headed by the entry shows the natural chain unless it says otherwise.
UniProt P07711: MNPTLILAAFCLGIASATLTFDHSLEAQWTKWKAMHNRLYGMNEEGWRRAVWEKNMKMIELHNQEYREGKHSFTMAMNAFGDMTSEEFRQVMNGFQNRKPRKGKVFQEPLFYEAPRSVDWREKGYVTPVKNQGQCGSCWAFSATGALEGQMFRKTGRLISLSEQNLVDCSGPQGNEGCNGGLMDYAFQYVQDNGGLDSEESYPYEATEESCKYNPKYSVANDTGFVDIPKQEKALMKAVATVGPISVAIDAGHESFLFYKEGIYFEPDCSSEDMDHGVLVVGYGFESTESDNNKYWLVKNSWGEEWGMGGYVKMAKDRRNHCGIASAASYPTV

These are yes or no findings as the source states them, for the method shown. Binding seen in cells or lysates may run through a third protein. Binding calls can cover weak binding; strength is not graded here.

B1: grainyhead-like 2 transcription factor (protein, UniProt Q6ISB3 1-625)
chain: MSQESDNNKRLVALVPMPSDPPFNTRRAYTSEDEAWKSYLENPLTAATKAMMSINGDEDSAAALGLLYDYYKVPRDKRLLSVSKASDSQEDQEKRNCLGTSEAQSNLSGGENRVQVLKTVPVNLSLNQDHLENSKREQYSISFPESSAIIPVSGITVVKAEDFTPVFMAPPVHYPRGDGEEQRVVIFEQTQYDVPSLATHSAYLKDDQRSTPDSTYSESFKDAATEKFRSASVGAEEYMYDQTSSGTFQYTLEATKSLRQKQGEGPMTYLNKGQFYAITLSETGDNKCFRHPISKVRSVVMVVFSEDKNRDEQLKYWKYWHSRQHTAKQRVLDIADYKESFNTIGNIEEIAYNAVSFTWDVNEEAKIFITVNCLSTDFSSQKGVKGLPLMIQIDTYSYNNRSNKPIHRAYCQIKVFCDKGAERKIRDEERKQNRKKGKGQASQTQCNSSSDGKLAAIPLQKKSDITYFKTMPDLHSQPVLFIPDVHFANLQRTGQVYYNTDDEREGGSVLVKRMFRPMEEEFGPVPSKQMKEEGTKRVLLYVRKETDDVFDALMLKSPTVKGLMEAISEKYGLPVEKIAKLYKKSKKGILVNMDDNIIEHYSNEDTFILNMESMVEGFKVTLMEI
B1: the binding result was “binds”.

These data come from PMC12165855.
